Measured values from publication PMC7181751.
No constants are given. Whether binding was seen depends on the method and setting. In cells and extracts the contact can be indirect. Some entries that bind do so weakly or less than the wild type.

T1: Boc (bioregional Cdon-binding protein), endogenous (mouse (endogenous in NIH3T3)) (UniProt Q6AZB0)
T1 sequence: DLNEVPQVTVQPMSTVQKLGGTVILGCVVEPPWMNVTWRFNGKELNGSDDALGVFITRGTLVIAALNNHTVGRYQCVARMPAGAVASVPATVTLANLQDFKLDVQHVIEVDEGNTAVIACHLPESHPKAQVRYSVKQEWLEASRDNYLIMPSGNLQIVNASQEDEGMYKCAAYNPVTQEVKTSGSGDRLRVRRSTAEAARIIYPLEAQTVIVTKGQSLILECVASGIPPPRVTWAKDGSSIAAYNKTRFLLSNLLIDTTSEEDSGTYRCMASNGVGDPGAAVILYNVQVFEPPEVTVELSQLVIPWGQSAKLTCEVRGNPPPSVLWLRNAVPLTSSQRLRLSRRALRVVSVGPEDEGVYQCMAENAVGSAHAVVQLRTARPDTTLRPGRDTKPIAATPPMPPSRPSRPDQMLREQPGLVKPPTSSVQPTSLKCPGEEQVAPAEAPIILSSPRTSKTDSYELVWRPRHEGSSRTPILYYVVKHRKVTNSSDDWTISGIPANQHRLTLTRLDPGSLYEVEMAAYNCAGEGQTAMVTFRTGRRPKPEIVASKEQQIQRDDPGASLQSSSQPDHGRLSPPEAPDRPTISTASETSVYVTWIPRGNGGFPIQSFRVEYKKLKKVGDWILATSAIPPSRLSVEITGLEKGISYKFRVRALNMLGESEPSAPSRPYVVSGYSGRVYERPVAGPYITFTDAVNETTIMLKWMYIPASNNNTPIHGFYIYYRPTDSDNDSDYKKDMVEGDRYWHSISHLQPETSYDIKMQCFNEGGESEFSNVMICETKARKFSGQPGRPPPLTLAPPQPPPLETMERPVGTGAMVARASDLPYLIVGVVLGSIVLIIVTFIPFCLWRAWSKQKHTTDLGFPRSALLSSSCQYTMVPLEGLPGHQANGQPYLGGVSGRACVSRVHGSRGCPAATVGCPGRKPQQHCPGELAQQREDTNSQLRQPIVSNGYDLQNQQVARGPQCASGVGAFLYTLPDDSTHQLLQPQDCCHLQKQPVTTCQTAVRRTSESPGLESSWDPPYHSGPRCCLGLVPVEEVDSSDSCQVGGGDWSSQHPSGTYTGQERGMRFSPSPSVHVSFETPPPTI

T2: mouse Ptch1 (pcDNA3-mPtch1) (mouse), Q61115
T2 chain: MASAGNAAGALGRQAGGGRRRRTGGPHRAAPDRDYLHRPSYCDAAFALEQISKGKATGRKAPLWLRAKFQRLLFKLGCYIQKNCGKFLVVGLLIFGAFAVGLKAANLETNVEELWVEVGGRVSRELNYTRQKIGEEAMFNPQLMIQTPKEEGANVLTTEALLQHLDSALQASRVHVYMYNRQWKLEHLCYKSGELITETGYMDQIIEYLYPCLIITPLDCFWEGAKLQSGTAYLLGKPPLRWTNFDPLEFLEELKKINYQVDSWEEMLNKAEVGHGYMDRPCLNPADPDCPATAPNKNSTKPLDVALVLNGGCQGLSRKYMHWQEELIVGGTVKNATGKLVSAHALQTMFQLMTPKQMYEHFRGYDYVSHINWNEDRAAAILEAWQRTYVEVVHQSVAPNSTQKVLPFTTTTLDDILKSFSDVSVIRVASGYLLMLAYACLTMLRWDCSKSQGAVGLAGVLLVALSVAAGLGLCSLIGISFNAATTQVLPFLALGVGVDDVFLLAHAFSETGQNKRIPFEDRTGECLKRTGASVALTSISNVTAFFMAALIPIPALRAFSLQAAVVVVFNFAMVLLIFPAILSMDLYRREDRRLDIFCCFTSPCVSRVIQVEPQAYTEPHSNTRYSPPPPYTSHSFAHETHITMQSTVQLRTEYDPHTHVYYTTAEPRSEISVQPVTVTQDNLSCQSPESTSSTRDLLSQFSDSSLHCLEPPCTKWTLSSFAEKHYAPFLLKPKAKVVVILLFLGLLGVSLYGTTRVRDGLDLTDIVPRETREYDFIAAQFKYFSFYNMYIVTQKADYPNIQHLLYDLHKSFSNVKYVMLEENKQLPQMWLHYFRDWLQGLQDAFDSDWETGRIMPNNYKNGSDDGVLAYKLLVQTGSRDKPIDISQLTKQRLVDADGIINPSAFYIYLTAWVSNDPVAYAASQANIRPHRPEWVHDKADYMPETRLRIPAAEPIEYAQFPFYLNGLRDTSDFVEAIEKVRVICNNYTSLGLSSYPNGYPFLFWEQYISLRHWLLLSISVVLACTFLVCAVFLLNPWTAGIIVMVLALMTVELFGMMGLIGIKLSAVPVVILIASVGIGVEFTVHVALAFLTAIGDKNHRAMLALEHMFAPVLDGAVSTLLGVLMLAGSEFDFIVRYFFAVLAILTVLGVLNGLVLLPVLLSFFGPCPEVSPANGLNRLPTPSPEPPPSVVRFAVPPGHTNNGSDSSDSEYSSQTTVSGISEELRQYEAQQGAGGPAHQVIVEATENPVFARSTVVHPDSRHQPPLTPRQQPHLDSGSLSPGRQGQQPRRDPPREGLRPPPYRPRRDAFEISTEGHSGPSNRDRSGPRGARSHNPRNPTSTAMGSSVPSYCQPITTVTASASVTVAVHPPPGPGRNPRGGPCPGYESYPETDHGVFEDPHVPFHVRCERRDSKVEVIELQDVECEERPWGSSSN


What was measured:
[1] = target: T1, Boc (bioregional Cdon-binding protein), endogenous (mouse (endogenous in NIH3T3)); assay: co-IP; NIH3T3/Cas9 Ptch1 KO cells transfected with mouse Ptch1, stimulated with Shh for 24 h; IP of Ptch1 and reciprocal IP of endogenous Boc, Western blot
[2] = target: T1, Boc (bioregional Cdon-binding protein), endogenous (mouse (endogenous in NIH3T3)); assay: co-IP; NIH3T3/Cas9 Ptch1 KO cells transfected with mouse Ptch1, unstimulated and 40 min after Shh (partial release at 40 min); IP of Ptch1 and reciprocal IP of endogenous Boc, Western blot
[3] = target: T2, mouse Ptch1 (pcDNA3-mPtch1) (mouse), …; assay: as above; settings: remark: other sources report otherwise
[4] = target: T2, mouse Ptch1 (pcDNA3-mPtch1) (mouse), …; assay: co-IP; NIH3T3/Cas9 Ptch1 KO cells transfected with mouse Ptch1, stimulated with Shh for 24 h; IP of Ptch1 and reciprocal IP of endogenous Boc, Western blot; settings: remark: other sources report otherwise

| binding [2] | binding [3] | binding [4] | Binder | binding [1] |
| --- | --- | --- | --- | --- |
| binds | – | – | mouse Ptch1 (pcDNA3-mPtch1) (receptor, UniProt Q61115 1-1434) MASAGNAAGALGRQAGGGRRRRTGGPHRAAPDRDYLHRPSYCDAAFALEQISKGKATGRKAPLWLRAKFQRLLFKLGCYIQKNCGKFLVVGLLIFGAFAVGLKAANLETNVEELWVEVGGRVSRELNYTRQKIGEEAMFNPQLMIQTPKEEGANVLTTEALLQHLDSALQASRVHVYMYNRQWKLEHLCYKSGELITETGYMDQIIEYLYPCLIITPLDCFWEGAKLQSGTAYLLGKPPLRWTNFDPLEFLEELKKINYQVDSWEEMLNKAEVGHGYMDRPCLNPADPDCPATAPNKNSTKPLDVALVLNGGCQGLSRKYMHWQEELIVGGTVKNATGKLVSAHALQTMFQLMTPKQMYEHFRGYDYVSHINWNEDRAAAILEAWQRTYVEVVHQSVAPNSTQKVLPFTTTTLDDILKSFSDVSVIRVASGYLLMLAYACLTMLRWDCSKSQGAVGLAGVLLVALSVAAGLGLCSLIGISFNAATTQVLPFLALGVGVDDVFLLAHAFSETGQNKRIPFEDRTGECLKRTGASVALTSISNVTAFFMAALIPIPALRAFSLQAAVVVVFNFAMVLLIFPAILSMDLYRREDRRLDIFCCFTSPCVSRVIQVEPQAYTEPHSNTRYSPPPPYTSHSFAHETHITMQSTVQLRTEYDPHTHVYYTTAEPRSEISVQPVTVTQDNLSCQSPESTSSTRDLLSQFSDSSLHCLEPPCTKWTLSSFAEKHYAPFLLKPKAKVVVILLFLGLLGVSLYGTTRVRDGLDLTDIVPRETREYDFIAAQFKYFSFYNMYIVTQKADYPNIQHLLYDLHKSFSNVKYVMLEENKQLPQMWLHYFRDWLQGLQDAFDSDWETGRIMPNNYKNGSDDGVLAYKLLVQTGSRDKPIDISQLTKQRLVDADGIINPSAFYIYLTAWVSNDPVAYAASQANIRPHRPEWVHDKADYMPETRLRIPAAEPIEYAQFPFYLNGLRDTSDFVEAIEKVRVICNNYTSLGLSSYPNGYPFLFWEQYISLRHWLLLSISVVLACTFLVCAVFLLNPWTAGIIVMVLALMTVELFGMMGLIGIKLSAVPVVILIASVGIGVEFTVHVALAFLTAIGDKNHRAMLALEHMFAPVLDGAVSTLLGVLMLAGSEFDFIVRYFFAVLAILTVLGVLNGLVLLPVLLSFFGPCPEVSPANGLNRLPTPSPEPPPSVVRFAVPPGHTNNGSDSSDSEYSSQTTVSGISEELRQYEAQQGAGGPAHQVIVEATENPVFARSTVVHPDSRHQPPLTPRQQPHLDSGSLSPGRQGQQPRRDPPREGLRPPPYRPRRDAFEISTEGHSGPSNRDRSGPRGARSHNPRNPTSTAMGSSVPSYCQPITTVTASASVTVAVHPPPGPGRNPRGGPCPGYESYPETDHGVFEDPHVPFHVRCERRDSKVEVIELQDVECEERPWGSSSN | no binding (condition: after Shh for 24 h) |
| – | no binding | no binding | Gas1 (Growth arrest-specific gene 1), endogenous, Q01721 39-315 (receptor) LAHGRRLICWQALLQCQGEPDCSYAYSQYAEACAPVLAQRGGADAPGPAGAFPASAASSPRWRCPSHCISALIQLNHTRRGPALEDCDCAQDEHCRSTKRAIEPCLPRTSSVGPGAGAGSVMGCTEARRRCDRDSRCNLALSRYLAYCGKLFNGLRCTDECRAVIEDMLAVPKAALLNDCVCDGLERPICESVKENMARLCFGPDASNGPGSSGSDGGLDDYYDEEYDDEQRAGAAGGEQPLDDDDGLARPGGGAAAAGGRGDLPHGPGRRSSSSGS | – |
